Assay results from the supplement of paper PMC8728848.
The other results are listed elsewhere or left out.

How the values were obtained:
Assay in all cases: glycan array binding signal (z-score within array); higher = stronger binding
Conditions in all cases: glycan notation: IUPAC condensed, linker removed
[1] = molecular target: Gal(b1-3)GlcNAc(b1-2)Man(a1-3)[Gal(b1-3)GlcNAc(b1-2)Man(a1-6)]Man(b1-4)GlcNAc(b1-4)[Fuc(a1-6)]GlcNAc
Procedure, shortened: (§1)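 From the Consortium for Functional Glycomics database, 3228 arrays were curated, keeping only those whose protein sequence was available. Binding is given as a within-array Z-score averaged across arrays sharing a protein sequence and across linkers. Negative Z-scores can be read as non-binding.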

[2] = molecular target: Gal(b1-3)GlcNAc(b1-2)Man(a1-3)[GlcNAc(b1-4)][Gal(b1-3)GlcNAc(b1-2)Man(a1-6)]Man(b1-4)GlcNAc(b1-4)GlcNAc
Procedure, shortened: as §1

[3] = molecular target: Gal(b1-3)GlcNAc(b1-2)[Gal(b1-3)GlcNAc(b1-6)]Man(a1-6)[Gal(b1-3)GlcNAc(b1-2)Man(a1-3)]Man(b1-4)GlcNAc(b1-4)GlcNAc
Procedure, shortened: as §1

[4] = molecular target: Gal(b1-3)GlcNAc(b1-3)Gal(b1-3)GlcNAc
Procedure, shortened: as §1

[5] = molecular target: Gal(b1-3)GlcNAc(b1-3)Gal(b1-4)Glc
Procedure, shortened: as §1

[6] = molecular target: Gal(b1-3)GlcNAc(b1-3)Gal(b1-4)GlcNAc
Procedure, shortened: as §1

[7] = molecular target: Gal(b1-3)GlcNAc(b1-3)Gal(b1-4)GlcNAc(b1-2)Man(a1-3)[Gal(b1-3)GlcNAc(b1-3)Gal(b1-4)GlcNAc(b1-2)Man(a1-6)]Man(b1-4)GlcNAc(b1-4)GlcNAc
Procedure, shortened: as §1

[8] = molecular target: Gal(b1-3)GlcNAc(b1-3)Gal(b1-4)GlcNAc(b1-2)[Gal(b1-3)GlcNAc(b1-3)Gal(b1-4)GlcNAc(b1-6)]Man(a1-6)[Gal(b1-3)GlcNAc(b1-3)Gal(b1-4)GlcNAc(b1-2)Man(a1-3)]Man(b1-4)GlcNAc(b1-4)[Fuc(a1-6)]GlcNAc
Procedure, shortened: as §1

[9] = molecular target: Gal(b1-3)GlcNAc(b1-3)Gal(b1-4)GlcNAc(b1-3)Gal(b1-4)GlcNAc(b1-2)[Gal(b1-3)GlcNAc(b1-3)Gal(b1-4)GlcNAc(b1-3)Gal(b1-4)GlcNAc(b1-6)]Man(a1-6)[Gal(b1-3)GlcNAc(b1-3)Gal(b1-4)GlcNAc(b1-3)Gal(b1-4)GlcNAc(b1-2)Man(a1-3)]Man(b1-4)GlcNAc(b1-4)[Fuc(a1-6)]GlcNAc
Procedure, shortened: as §1

[10] = molecular target: Gal(b1-3)GlcNAc(b1-3)Gal(b1-4)GlcNAc(b1-6)[Gal(b1-3)GlcNAc(b1-3)]Gal(b1-4)Glc
Procedure, shortened: as §1

[11] = molecular target: Gal(b1-3)GlcNAc(b1-3)Gal(b1-4)[Fuc(a1-3)]GlcNAc
Procedure, shortened: as §1

[12] = molecular target: Gal(b1-3)GlcNAc(b1-3)Gal(b1-4)[Fuc(a1-3)]GlcNAc(b1-6)[Gal(b1-3)GlcNAc(b1-3)]Gal(b1-4)Glc
Procedure, shortened: as §1

[13] = molecular target: Gal(b1-3)GlcNAc(b1-3)GalNAc
Procedure, shortened: as §1

[14] = molecular target: Gal(b1-3)GlcNAc(b1-6)Gal(b1-4)GlcNAc
Procedure, shortened: as §1

[15] = molecular target: Gal(b1-3)GlcNAc(b1-6)GalNAc
Procedure, shortened: as §1

[16] = molecular target: Gal(b1-3)GlcNAc(b1-6)[Gal(b1-3)]GalNAc
Procedure, shortened: as §1

Gal(b1-3)GlcNAc6S = molecular target: Gal(b1-3)GlcNAc6S
Procedure, shortened: as §1

[17] = molecular target: Gal(b1-3)[Fuc(a1-4)]GlcNAc
Procedure, shortened: as §1

[18] = molecular target: Gal(b1-3)[Fuc(a1-4)]GlcNAc(b1-2)Man
Procedure, shortened: as §1

[19] = molecular target: Gal(b1-3)[Fuc(a1-4)]GlcNAc(b1-2)Man(a1-3)[Gal(b1-3)[Fuc(a1-4)]GlcNAc(b1-2)Man(a1-6)]Man(b1-4)GlcNAc(b1-4)[Fuc(a1-6)]GlcNAc
Procedure, shortened: as §1

[20] = molecular target: Gal(b1-3)[Fuc(a1-4)]GlcNAc(b1-3)Gal(b1-3)[Fuc(a1-4)]GlcNAc
Procedure, shortened: as §1

[21] = molecular target: Gal(b1-3)[Fuc(a1-4)]GlcNAc(b1-3)Gal(b1-4)[Fuc(a1-3)]GlcNAc
Procedure, shortened: as §1

[22] = molecular target: Gal(b1-3)[Fuc(a1-4)]GlcNAc(b1-6)GalNAc
Procedure, shortened: as §1

[23] = molecular target: Gal(b1-3)[GlcNAc(b1-6)]GalNAc
Procedure, shortened: as §1

[24] = molecular target: Gal(b1-3)[Neu5Ac(a2-6)]GalNAc
Procedure, shortened: as §1

[25] = molecular target: Gal(b1-3)[Neu5Ac(a2-6)]GlcNAc(b1-4)Gal(b1-4)Glc
Procedure, shortened: as §1

[26] = molecular target: Gal(b1-3)[Neu5Ac(b2-6)]GalNAc
Procedure, shortened: as §1

Gal(b1-4)Gal = molecular target: Gal(b1-4)Gal
Procedure, shortened: as §1

[27] = molecular target: Gal(b1-4)GalNAc(a1-3)[Fuc(a1-2)]Gal(b1-4)GlcNAc
Procedure, shortened: as §1

[28] = molecular target: Gal(b1-4)GalNAc(b1-3)[Fuc(a1-2)]Gal(b1-4)GlcNAc
Procedure, shortened: as §1

Gal(b1-4)Glc = molecular target: Gal(b1-4)Glc
Procedure, shortened: as §1

Gal(b1-4)Glc6S = molecular target: Gal(b1-4)Glc6S
Procedure, shortened: as §1

Gal(b1-4)GlcNAc = molecular target: Gal(b1-4)GlcNAc
Procedure, shortened: as §1

[29] = molecular target: Gal(b1-4)GlcNAc(a1-6)Gal(b1-4)GlcNAc
Procedure, shortened: as §1

Gal(b1-4)GlcNAc(b1-2)Man = molecular target: Gal(b1-4)GlcNAc(b1-2)Man
Procedure, shortened: as §1

[30] = molecular target: Gal(b1-4)GlcNAc(b1-2)Man(a1-3)Man(b1-4)GlcNAc(b1-4)GlcNAc
Procedure, shortened: as §1

[31] = molecular target: Gal(b1-4)GlcNAc(b1-2)Man(a1-3)[Gal(b1-4)GlcNAc(b1-2)Man(a1-6)]Man(b1-4)GlcNAc(b1-4)GlcNAc
Procedure, shortened: as §1

B1: PX14404-bvu-534-26-534 (Bacteroides vulgatus) (protein)
chain: EDPRGKLTPENFFSTQDELNMSIYALYQKVNLSQVYTNMQLPQWQGDDITTNPGSNKQPAAEMDKFAAANNNKGVKDAWNMHYAIVKAANLIIQGASKTPTTQDEINIALGQAKFWRAYAYFTLVRLWGPLPMNLDNVNDDYTKPLSPVEEVYGHIVQDLTEAEAVLPTGYSGSPRFLNGVNVYVTRQAAKSTLAAVYMAMAGWPMNKTEYYAKAAEKAKEVIEGVNRGEYEYKLDKDYKDVYAMSNNYNNETVLGINYSPFVDWAQDSELTSCNQFESLGGWGDAWGEIRFWKEFPDGPRKDATYDPKIRLKDGTLVDWWELKEDGTPVVPEHHPMFSIFSVNWDPASKVNTSAPYDYTKPASQNMCNDHRHRIIRYSEVLLWYAEAKARTGQTDELAFKCLNDVRERAGLEPLTGLSADDLAEAAYKEHGWEVAGYWVALVTRRADQFRMNRLKDTFKERAENTAVEVADGILVKESVEYTNRTWSDNLMYLPYPDMDSQKNPNLVR
Q: Which results are given for B1?
A: glycan array binding signal (z-score) [1]: 0.665; glycan array binding signal (z-score) [2]: 0.377; glycan array binding signal (z-score) [3]: 0.645; glycan array binding signal (z-score) [4]: -0.525; glycan array binding signal (z-score) [5]: -0.543; glycan array binding signal (z-score) [6]: -1.42; glycan array binding signal (z-score) [7]: -0.494; glycan array binding signal (z-score) [8]: 0.929; glycan array binding signal (z-score) [9]: 0.231; glycan array binding signal (z-score) [10]: -0.123; glycan array binding signal (z-score) [11]: -1.07; glycan array binding signal (z-score) [12]: -0.291; glycan array binding signal (z-score) [13]: -0.621; glycan array binding signal (z-score) [14]: 0.301; glycan array binding signal (z-score) [15]: -1.35; glycan array binding signal (z-score) [16]: 0.744; glycan array binding signal (z-score) (Gal(b1-3)GlcNAc6S): -0.497; glycan array binding signal (z-score) [17]: 0.237; glycan array binding signal (z-score) [18]: -0.157; glycan array binding signal (z-score) [19]: 0.158; glycan array binding signal (z-score) [20]: -0.127; glycan array binding signal (z-score) [21]: 0.687; glycan array binding signal (z-score) [22]: 0.763; glycan array binding signal (z-score) [23]: 0.791; glycan array binding signal (z-score) [24]: -0.558; glycan array binding signal (z-score) [25]: 0.099; glycan array binding signal (z-score) [26]: -1.21; glycan array binding signal (z-score) (Gal(b1-4)Gal): -1.37; glycan array binding signal (z-score) [27]: 1.16; glycan array binding signal (z-score) [28]: -1.15; glycan array binding signal (z-score) (Gal(b1-4)Glc): -0.037; glycan array binding signal (z-score) (Gal(b1-4)Glc6S): 0.084; glycan array binding signal (z-score) (Gal(b1-4)GlcNAc): -0.18; glycan array binding signal (z-score) [29]: -1.04; glycan array binding signal (z-score) (Gal(b1-4)GlcNAc(b1-2)Man): -0.537; glycan array binding signal (z-score) [30]: -0.296; glycan array binding signal (z-score) [31]: -1.02
